We go through two substances from paper PMC8373905.

By UniProt entry, the sequences of proteins in these tests, tags left out.
UniProt P11387: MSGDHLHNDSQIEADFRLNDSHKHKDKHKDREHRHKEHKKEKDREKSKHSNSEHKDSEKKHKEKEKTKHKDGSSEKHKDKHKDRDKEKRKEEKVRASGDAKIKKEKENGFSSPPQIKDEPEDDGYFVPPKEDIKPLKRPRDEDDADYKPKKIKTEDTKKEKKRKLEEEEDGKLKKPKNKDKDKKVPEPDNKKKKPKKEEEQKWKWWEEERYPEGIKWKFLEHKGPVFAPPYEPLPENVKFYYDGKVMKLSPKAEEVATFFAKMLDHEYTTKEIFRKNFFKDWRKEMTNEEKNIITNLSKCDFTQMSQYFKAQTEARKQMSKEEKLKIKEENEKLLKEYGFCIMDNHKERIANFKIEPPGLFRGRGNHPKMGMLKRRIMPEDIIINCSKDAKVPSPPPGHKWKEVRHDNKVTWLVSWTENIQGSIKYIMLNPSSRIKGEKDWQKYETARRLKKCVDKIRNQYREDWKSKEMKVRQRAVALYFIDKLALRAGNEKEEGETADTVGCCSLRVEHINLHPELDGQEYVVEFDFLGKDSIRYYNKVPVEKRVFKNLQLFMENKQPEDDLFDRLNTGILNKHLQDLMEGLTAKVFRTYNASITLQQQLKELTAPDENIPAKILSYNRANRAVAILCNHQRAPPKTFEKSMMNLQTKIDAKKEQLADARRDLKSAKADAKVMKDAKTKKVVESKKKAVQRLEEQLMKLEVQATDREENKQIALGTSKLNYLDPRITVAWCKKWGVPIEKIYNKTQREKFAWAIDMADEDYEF
UniProt P09874: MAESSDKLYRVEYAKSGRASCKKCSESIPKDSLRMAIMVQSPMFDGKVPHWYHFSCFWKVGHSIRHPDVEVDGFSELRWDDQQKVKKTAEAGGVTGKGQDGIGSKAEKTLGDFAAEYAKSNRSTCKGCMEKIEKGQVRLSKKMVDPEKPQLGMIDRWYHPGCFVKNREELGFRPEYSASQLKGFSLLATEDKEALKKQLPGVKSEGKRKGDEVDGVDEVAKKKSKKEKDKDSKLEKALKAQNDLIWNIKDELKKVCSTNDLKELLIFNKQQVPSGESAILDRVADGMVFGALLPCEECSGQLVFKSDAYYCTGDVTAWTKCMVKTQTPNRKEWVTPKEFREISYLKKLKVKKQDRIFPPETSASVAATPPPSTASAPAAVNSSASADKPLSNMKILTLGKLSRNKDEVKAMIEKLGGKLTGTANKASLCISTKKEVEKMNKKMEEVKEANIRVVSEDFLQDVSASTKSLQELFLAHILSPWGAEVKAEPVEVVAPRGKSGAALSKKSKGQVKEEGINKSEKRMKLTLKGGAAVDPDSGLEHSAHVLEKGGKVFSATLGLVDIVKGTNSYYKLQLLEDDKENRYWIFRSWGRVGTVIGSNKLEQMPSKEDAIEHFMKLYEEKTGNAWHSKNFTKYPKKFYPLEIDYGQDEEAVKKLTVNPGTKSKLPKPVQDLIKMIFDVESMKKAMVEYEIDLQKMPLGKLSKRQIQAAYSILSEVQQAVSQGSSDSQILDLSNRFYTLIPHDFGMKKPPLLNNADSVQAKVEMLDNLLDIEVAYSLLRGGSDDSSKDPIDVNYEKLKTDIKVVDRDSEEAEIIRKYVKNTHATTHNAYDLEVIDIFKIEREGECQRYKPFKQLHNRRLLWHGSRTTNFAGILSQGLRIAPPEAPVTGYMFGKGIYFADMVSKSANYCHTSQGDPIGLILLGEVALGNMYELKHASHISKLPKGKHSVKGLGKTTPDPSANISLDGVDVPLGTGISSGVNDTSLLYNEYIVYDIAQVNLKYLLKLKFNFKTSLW
UniProt Q93009: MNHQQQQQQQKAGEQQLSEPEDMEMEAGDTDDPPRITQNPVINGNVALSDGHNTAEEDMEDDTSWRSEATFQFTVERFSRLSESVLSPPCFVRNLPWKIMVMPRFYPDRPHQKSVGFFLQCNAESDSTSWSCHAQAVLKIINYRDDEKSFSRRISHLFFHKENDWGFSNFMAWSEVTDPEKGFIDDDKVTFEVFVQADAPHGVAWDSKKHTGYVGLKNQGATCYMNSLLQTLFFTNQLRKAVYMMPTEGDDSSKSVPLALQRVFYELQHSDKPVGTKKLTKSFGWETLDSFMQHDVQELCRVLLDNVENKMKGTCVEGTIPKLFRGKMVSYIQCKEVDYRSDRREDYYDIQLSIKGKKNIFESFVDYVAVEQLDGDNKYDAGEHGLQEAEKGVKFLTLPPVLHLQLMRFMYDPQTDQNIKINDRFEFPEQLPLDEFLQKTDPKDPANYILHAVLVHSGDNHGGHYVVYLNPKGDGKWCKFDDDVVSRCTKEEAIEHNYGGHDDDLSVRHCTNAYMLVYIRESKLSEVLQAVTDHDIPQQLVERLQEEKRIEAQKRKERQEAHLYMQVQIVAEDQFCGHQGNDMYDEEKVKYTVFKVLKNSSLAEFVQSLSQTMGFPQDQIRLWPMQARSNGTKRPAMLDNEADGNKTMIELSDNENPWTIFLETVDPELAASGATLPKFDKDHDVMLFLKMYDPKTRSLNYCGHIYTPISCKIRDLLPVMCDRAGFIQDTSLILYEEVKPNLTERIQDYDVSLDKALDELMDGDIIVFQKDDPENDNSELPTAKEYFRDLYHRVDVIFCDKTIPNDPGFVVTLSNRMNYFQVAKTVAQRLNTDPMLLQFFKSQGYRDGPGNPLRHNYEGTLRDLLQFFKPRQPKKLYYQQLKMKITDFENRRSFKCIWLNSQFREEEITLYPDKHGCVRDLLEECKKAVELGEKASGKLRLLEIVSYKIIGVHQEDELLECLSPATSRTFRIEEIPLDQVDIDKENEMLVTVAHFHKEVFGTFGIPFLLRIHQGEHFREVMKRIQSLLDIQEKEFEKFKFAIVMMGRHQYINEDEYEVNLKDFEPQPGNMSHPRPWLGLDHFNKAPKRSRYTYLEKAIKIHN

Results are given in words; binding and its absence hold for the method and conditions named. In cells and extracts the contact can be indirect. A yes stands for co-enrichment or nearness to the bait. Other partners may have been found.

The target of this assay is 6×His-tagged TOP1 (topoisomerase I) (human) (UniProt P11387). In words: affinity purification with mass spectrometry; His-tag pulldown with Ni-NTA agarose from HCT116 cells transfected with His-TOP1 or empty vector (pTrex), without CPT, then HPLC-MS/MS.

For “PARP1, endogenous (from UniProt P09874 1-1014) (enzyme)”, the binding result is “binds”.
As for “USP7 (ubiquitin-specific protease), endogenous (from UniProt Q93009 1-1102) (enzyme)”, the entry is “binds”.
